PubChem BioAssay AID743121 – NCATS | 2013
Test: 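Knock-downs that sensitise breast cancer cells to camptothecin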 (primary screen). Cells: MDA-MB-231 cells, a human breast cancer line. Knock-down reagent: single siRNA against human genes, 20 nM siRNA (0.8 pmol per well). Timing: 120 h (drug added 48 h after transfection, read 72 h later). Treatment: camptothecin 20 nM (about EC30) for 72 h; vehicle 0.1% DMSO in parallel plates. Measured: 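Cell viability by ATP luminescence (CellTiter-Glo) as % of non-targeting siRNA wells, and the log2 ratio of viability without drug over viability with camptothecin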. Reading the numbers: log2 vehicle/camptothecin viability: higher = stronger sensitisation to camptothecin. Call rule: 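Each gene scored by redundant siRNA activity (RSA) over its individual siRNA ratios; a gene is called active at p < 0.001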.
The whole screen tested about 26,000 reagents; shown is an unselected part. In the full data, 167 (0.63%) were called active. 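Calls are per gene from RSA p-values that are not deposited; an individual active-marked siRNA can sensitise only weakly.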 Unmarked entries are inactive. The numbers tell different reagents against one gene apart. Further read-outs or replicates are left out here.

log2 vehicle/camptothecin viability, by gene symbol and reagent
FOSB (GeneID 2354): #1 -0.355; #2 -0.36; #3 -0.238; #4 -0.216
CDKN1B (GeneID 1027): #1 -0.276; #2 -0.493; #3 -0.248; #4 0.381
KMT2E (GeneID 55904): #1 -0.00313; #2 -0.812; #3 0.304
PNKP (GeneID 11284): #1 -0.309; #2 -0.0415; #3 -0.167; #4 -0.312
IFNA7 (GeneID 3444): #1 -0.134; #2 -0.293; #3 0.0437
GRXCR1 (GeneID 389207): #1 -0.159; #2 -0.24; #3 -0.386; #4 0.858
GUCA2B (GeneID 2981): #1 -0.155; #2 -0.177; #3 0.147; #4 -0.0552
IDE (GeneID 3416): #1 -0.0967; #2 -0.0986; #3 -0.0999; #4 0.95
BCKDK (GeneID 10295): #1 -0.509; #2 -0.0849; #3 -0.195; #4 -0.0567
CKMT2 (GeneID 1160): #1 0.0123; #2 -0.231; #3 -0.00407; #4 -0.699
RNF11 (GeneID 26994): #1 -0.6; #2 0.686; #3 -0.16; #4 -0.095
HEMK1 (GeneID 51409): #1 0.0971 (active); #2 0.47 (active); #3 0.407 (active); #4 0.618 (active)

Reformatted: 3 of the entries above.
BCKDK (GeneID 10295) #2 — log2 vehicle/camptothecin viability = -0.0849
BCKDK (GeneID 10295) #3 — log2 vehicle/camptothecin viability = -0.195
BCKDK (GeneID 10295) #4 — log2 vehicle/camptothecin viability = -0.0567
